Where a name gives a salt, the structure may show the parent alone. The list shows a part of the results. Single values are uncertain, as repeats are few or missing.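 Primary human fetal astrocytes engulfed labelled rat cortical synaptosomes, measured as a red/green ratio corrected for calcein live-cell signal and scaled to the plate median. Toxicity meant calcein falling over 30%; decreased phagocytosis meant below 70% of median above 5 µM.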
How the values were obtained:
Human fetal astrocytes [1] = assay: loss of total cells relative to no-compound high-control median (toxicity); higher = more toxic (fewer cells); details: 24 h
Human fetal astrocytes [2] = assay: synaptosome phagocytosis (pHrodo/calcein intensity ratio) relative to plate median of data wells; higher = more phagocytosis; details: 24 h

Row | Compound | loss of total cells (Human fetal astrocytes [1]; 1.39 µM) | loss of total cells (Human fetal astrocytes [1]; 2.78 µM) | loss of total cells (Human fetal astrocytes [1]; 5.56 µM) | loss of total cells (Human fetal astrocytes [1]; 11.11 µM) | loss of total cells (Human fetal astrocytes [1]; 22.22 µM) | synaptosome phagocytosis (Human fetal astrocytes [2]; 1.39 µM) | synaptosome phagocytosis (Human fetal astrocytes [2]; 2.78 µM) | synaptosome phagocytosis (Human fetal astrocytes [2]; 5.56 µM) | synaptosome phagocytosis (Human fetal astrocytes [2]; 11.11 µM) | synaptosome phagocytosis (Human fetal astrocytes [2]; 22.22 µM)
1 | CC(=O)O[C@H]1C[C@@H](OC(C)=O)C(C)(C)[C@@H]2CC(=O)[C@]3(C)[C@H](CC[C@@]4(C)[C@H](c5ccoc5)OC(=O)[C@H]5O[C@]543)[C@@]12C | -1.1% | 2.7% | 45.8% | -10.3% | 1.1% | 108% | 115% | 146% | 95% | 119%
2 | C[C@H]1CC[C@@H](C(C)(C)O)CC2=C1CC[C@@H]2C | -24.6% | -3.2% | -9.5% | 17.6% | 7.4% | 94.4% | 107% | 131% | 119% | 124%
3 | Clc1ccc(C(Cn2ccnc2)OCc2ccsc2Cl)c(Cl)c1 (stereo not given) | -25.8% | -52.4% | 3.1% | 35.1% | 44.5% | 122% | 78.1% | 115% | 96% | 71%
4 | Oc1c(Br)cc(Br)c2cccnc12 | 1.8% | 18.4% | 15.2% | 13.8% | 34.1% | 76.2% | 113% | 84.9% | 83.6% | 48.2%
5 | CC(=O)OC/C=C(\C)CC/C=C(\C)CC/C=C(\C)CC/C=C(\C)CC/C=C(\C)CC/C=C(\C)CC/C=C(\C)CC/C=C(\C)CCC=C(C)C | 5.7% | 7.6% | 8.8% | 10.1% | 6.7% | 120% | 102% | 138% | 120% | 132%
6 | CC(C)CCCCC(=O)N[C@@H](CCN)C(=O)N[C@@H](CN[C@@H](CCN)C(=O)N[C@H]1CCNC(=O)[C@H]([C@@H](C)O)NC(=O)[C@H](CCN)NC(=O)[C@H](CCN)NC(=O)[C@H](CC(C)C)NC(=O)[C@@H](CC(C)C)NC(=O)[C@H](CCN)NC1=O)[C@@H](C)O.CCC(C)CCCCC(=O)N[C@@H](CCN)C(=O)N[C@@H](CN[C@@H](CCN)C(=O)N[C@H]1CCNC(=O)[C@H]([C@@H](C)O)NC(=O)[C@H](CCN)NC(=O)[C@H](CCN)NC(=O)[C@H](CC(C)C)NC(=O)[C@@H](CC(C)C)NC(=O)[C@H](CCN)NC1=O)[C@@H](C)O (stereo not given in full) | -16.3% | 2.7% | 38.9% | -11.6% | 13.7% | 104% | 102% | 165% | 96% | 83.2%
7 | CC(=O)N[C@@H](CC(=O)N[C@@H](CCC(=O)O)C(=O)O)C(=O)O | 6.9% | 14.1% | 8.7% | 13% | 19.7% | 109% | 112% | 106% | 112% | 112%
8 | CCOC(=O)OC(C)OC(=O)[C@@H]1N2C(=O)[C@@H](NC(=O)[C@H](N)c3ccccc3)[C@H]2SC1(C)C (stereo not given in full) | -26.6% | -26.2% | 6.2% | 38.4% | -12.8% | 91.1% | 94.4% | 128% | 146% | 97.5%
9 | CCN(CC)CCOC(=O)c1ccc(N)cc1 [Procaine hydrochloride] | 30% | -16.6% | -23% | -8.9% | 7.6% | 116% | 122% | 146% | 99.5% | 104%
10 | C=C1C(=O)O[C@@H]2C[C@@]3(C)CCC[C@H](C)C3=C[C@H]12 | -20.5% | -9.7% | 1.5% | -4.1% | -3.7% | 139% | 113% | 103% | 72.9% | 42.8%
11 | CC(=O)Oc1ccccc1C(=O)Oc1ccccc1C(=O)O | -13.9% | -12.6% | -3.7% | 22.3% | 6.7% | 117% | 105% | 118% | 148% | 75.7%
12 | COc1cc([C@@H]2c3cc4c(cc3[C@@H](O[C@@H]3O[C@@H]5CO[C@@H](c6cccs6)O[C@H]5[C@H](O)[C@H]3O)[C@H]3COC(=O)[C@H]23)OCO4)cc(OC)c1O [EPT PTG Vehem Vumon VM 26 Teniposide Veham-Sandoz] | -14.9% | 10.1% | 15.9% | 26.6% | 19.8% | 97.2% | 123% | 129% | 87.8% | 118%
13 | COc1cc2ccc(=O)oc2cc1O | 4.1% | 1.1% | 9.5% | 12.8% | 5.2% | 120% | 102% | 120% | 148% | 169%
14 | CC(C)CCC[C@@H](C)[C@H]1CC[C@H]2[C@@H]3CC=C4C[C@@H](O)CC[C@]4(C)[C@H]3CC[C@]12C | -5.6% | -12.5% | -7% | -8.9% | -32.5% | 98.4% | 97.7% | 90.8% | 119% | 131%
15 | O=C(O)COCCN1CCN(C(c2ccccc2)c2ccc(Cl)cc2)CC1 (stereo not given) | 0% | -10.1% | -8.7% | -19.5% | 9.1% | 94.1% | 103% | 89.4% | 104% | 93.9%
16 | COc1cc(C)c(C(=O)O)c(O)c1 | 1.8% | 8% | 28.2% | -0.6% | 10.7% | 88.2% | 86.9% | 93.7% | 90.5% | 121%
17 | Cn1nnnc1SCC1=C(C(=O)O)N2C(=O)[C@@H](NC(=O)[C@H](O)c3ccccc3)[C@H]2SC1 | 1.7% | 0.3% | 5.7% | 3.1% | 11.9% | 115% | 132% | 113% | 104% | 106%
18 | CC(=O)Nc1ccccc1 | -30.7% | -3.4% | -3.9% | -7% | -7.9% | 87.8% | 68.3% | 102% | 85% | 101%
19 | N=C(N)NCCN1CCCCCCC1 | -16.3% | -11.2% | -27.9% | -22.2% | 27.7% | 86.2% | 114% | 128% | 85.1% | 101%

In another format: 2 of the compounds above.
Row,Compound,loss of total cells (Human fetal astrocytes [1]; 1.39 µM),loss of total cells (Human fetal astrocytes [1]; 2.78 µM),loss of total cells (Human fetal astrocytes [1]; 5.56 µM),loss of total cells (Human fetal astrocytes [1]; 11.11 µM),loss of total cells (Human fetal astrocytes [1]; 22.22 µM),synaptosome phagocytosis (Human fetal astrocytes [2]; 1.39 µM),synaptosome phagocytosis (Human fetal astrocytes [2]; 2.78 µM),synaptosome phagocytosis (Human fetal astrocytes [2]; 5.56 µM),synaptosome phagocytosis (Human fetal astrocytes [2]; 11.11 µM),synaptosome phagocytosis (Human fetal astrocytes [2]; 22.22 µM)
12,COc1cc([C@@H]2c3cc4c(cc3[C@@H](O[C@@H]3O[C@@H]5CO[C@@H](c6cccs6)O[C@H]5[C@H](O)[C@H]3O)[C@H]3COC(=O)[C@H]23)OCO4)cc(OC)c1O [EPT PTG Vehem Vumon VM 26 Teniposide Veham-Sandoz],-14.9%,10.1%,15.9%,26.6%,19.8%,97.2%,123%,129%,87.8%,118%
15,O=C(O)COCCN1CCN(C(c2ccccc2)c2ccc(Cl)cc2)CC1 (stereo not given),0%,-10.1%,-8.7%,-19.5%,9.1%,94.1%,103%,89.4%,104%,93.9%

Continued.

Row | Compound | loss of total cells (Human fetal astrocytes [1]; 1.39 µM) | loss of total cells (Human fetal astrocytes [1]; 2.78 µM) | loss of total cells (Human fetal astrocytes [1]; 5.56 µM) | loss of total cells (Human fetal astrocytes [1]; 11.11 µM) | loss of total cells (Human fetal astrocytes [1]; 22.22 µM) | synaptosome phagocytosis (Human fetal astrocytes [2]; 1.39 µM) | synaptosome phagocytosis (Human fetal astrocytes [2]; 2.78 µM) | synaptosome phagocytosis (Human fetal astrocytes [2]; 5.56 µM) | synaptosome phagocytosis (Human fetal astrocytes [2]; 11.11 µM) | synaptosome phagocytosis (Human fetal astrocytes [2]; 22.22 µM)
20 | C=C[C@@]1(C)CC(=O)[C@]2(O)[C@@]3(C)[C@@H](O)CCC(C)(C)[C@@H]3[C@H](O)[C@H](OC(C)=O)[C@@]2(C)O1 | -28.2% | -8.7% | 6.2% | 21.3% | 10.3% | 64.3% | 70.4% | 83% | 70.2% | 117%
21 | CO[C@H]1C[C@H](O[C@@H]2/C(C)=C/C[C@@H]3C[C@@H](C[C@]4(CC[C@H](C)[C@@H](C5CCCCC5)O4)O3)OC(=O)[C@@H]3C=C(C)/C(=N/O)[C@H]4OC/C(=C\C=C\[C@@H]2C)[C@]43O)O[C@@H](C)[C@@H]1O | -29% | -42.1% | 8.7% | 56.1% | 40.8% | 82.1% | 72.3% | 63.4% | 16.3% | 36.1%
22 | CC[C@H]1OC(=O)C[C@@H](O)[C@H](C)[C@@H](O[C@@H]2O[C@H](C)[C@@H](O[C@H]3C[C@@](C)(O)[C@@H](O)[C@H](C)O3)[C@H](N(C)C)[C@H]2O)[C@@H](CC=O)C[C@@H](C)C(=O)/C=C/C(C)=C/[C@@H]1CO[C@@H]1O[C@H](C)[C@@H](O)[C@@H](OC)[C@H]1OC | -29% | 16.7% | -10.6% | 46.2% | 7.8% | 109% | 137% | 106% | 153% | 118%
23 | C=CCCCCCCCCC(=O)[O-].C=CCCCCCCCCC(=O)[O-].[Zn+2] | -24.2% | -26.2% | -12.4% | -1.6% | -6.5% | 119% | 85.9% | 110% | 91.7% | 128%
24 | COc1cc(-c2oc3cc(O)ccc3c(=O)c2O)ccc1O | -3.3% | 4% | 10.3% | 2% | 1.5% | 119% | 115% | 87.5% | 105% | 109%
25 | CC(CCC(=O)O)[C@H]1CCC2C3CC[C@@H]4CC(=O)CC[C@]4(C)C3C=C[C@@]21C (stereo not given in full) | -7.4% | 1.8% | -10.3% | 4.7% | 5.9% | 115% | 105% | 110% | 124% | 98.1%
26 | O=c1c(-c2cc(O)c(O)c(O)c2)coc2cc(O)c(O)c(O)c12 | 10.5% | 35% | 38.4% | 40.6% | 41.7% | 98.7% | 150% | 104% | 136% | 122%
27 | C=CC[C@@H]1/C=C(\C)C[C@H](C)C[C@H](OC)[C@H]2O[C@@](O)(C(=O)C(=O)N3CCCC[C@H]3C(=O)O[C@H](/C(C)=C/[C@@H]3CC[C@@H](O)[C@H](OC)C3)[C@H](C)[C@@H](O)CC1=O)[C@H](C)C[C@@H]2OC | -37.1% | 23.8% | 11.8% | 36.4% | 14% | 79.3% | 126% | 106% | 119% | 100%
28 | OCc1ccccc1O | 19.3% | -0.3% | -16% | 15.3% | 25.8% | 102% | 93.2% | 93.6% | 108% | 109%
29 | CCC(Cc1c(I)cc(I)c(N)c1I)C(=O)O (stereo not given) | -26.6% | -17.5% | -3.1% | 45.6% | 10.9% | 105% | 80.4% | 102% | 137% | 106%
30 | CCCCOC(=O)c1ccc(N)cc1 | -3.3% | -7.1% | -5.6% | -7.2% | -14.9% | 111% | 103% | 108% | 94.4% | 86.2%
31 | CCCCC(CC)CCC(CC(C)C)OS(=O)(=O)O (stereo not given) | 6.9% | 15.5% | 17.4% | 2.1% | 15.9% | 135% | 117% | 116% | 142% | 96.9%
32 | C=CC1=C(C)/C(=C/c2[nH]c(Cc3[nH]c(/C=C4\NC(=O)C(C)=C4C=C)c(C)c3CCC(=O)O)c(CCC(=O)O)c2C)NC1=O | -22.1% | -4% | 3.7% | 0% | 14.8% | 150% | 141% | 114% | 121% | 114%
33 | CS(=O)(=O)CCCCN=C=S | 17.7% | 19.1% | 8.7% | 15.5% | 29.5% | 116% | 97.5% | 94.6% | 78.8% | 112%
34 | CNC(=C[N+](=O)[O-])NCCSCc1csc(CN(C)C)n1 | 8.3% | 12% | 35.1% | 32.3% | -24.8% | 72.9% | 107% | 159% | 109% | 102%
35 | CN[C@@H]1[C@H](O[C@H]2[C@H](O[C@H]3[C@H](O)[C@@H](O)[C@H](NC(=N)N)[C@@H](O)[C@@H]3NC(=N)N)O[C@@H](C)[C@]2(O)CO)O[C@@H](CO)[C@H](O)[C@H]1O | 11.6% | -12.5% | -28.6% | -0.3% | -29.5% | 120% | 124% | 98.5% | 130% | 106%
36 | CC(=O)O[C@@H]1CC[C@@]2(C)C(C[C@@H](OC(C)=O)[C@@]3(C)C4=CC(=O)O[C@@H](c5ccoc5)[C@]4(C)CCC23)C1(C)C (stereo partly drawn) [3alpha-ACETOXYDIHYDRODEOXYGEDUNIN] | -7.6% | -6.6% | 34.4% | 12.3% | 27% | 104% | 90.2% | 129% | 104% | 102%
37 | C[C@H]1O[C@H](O[C@H]2[C@H](O)[C@@H](O)[C@@H](O[C@@H]([C@H](O)[C@@H](O)C=O)[C@H](O)CO)O[C@@H]2CO)[C@H](O)[C@@H](O)[C@@H]1N[C@H]1C=C(CO)[C@@H](O)[C@H](O)[C@H]1O | -50% | -46% | -13.7% | 17.4% | -4% | 104% | 94.3% | 128% | 122% | 95.1%
